Results are given in words; binding and its absence hold for the method and conditions named. In cells and extracts the contact can be indirect. Some entries that bind do so weakly or less than the wild type. Tags and fused reporters may be left off the sequences shown.

The target in this assay is T1, AtBIK1 fused to the N-terminal fragment of YFP (Arabidopsis thaliana) (UniProt O48814).
T1 sequence: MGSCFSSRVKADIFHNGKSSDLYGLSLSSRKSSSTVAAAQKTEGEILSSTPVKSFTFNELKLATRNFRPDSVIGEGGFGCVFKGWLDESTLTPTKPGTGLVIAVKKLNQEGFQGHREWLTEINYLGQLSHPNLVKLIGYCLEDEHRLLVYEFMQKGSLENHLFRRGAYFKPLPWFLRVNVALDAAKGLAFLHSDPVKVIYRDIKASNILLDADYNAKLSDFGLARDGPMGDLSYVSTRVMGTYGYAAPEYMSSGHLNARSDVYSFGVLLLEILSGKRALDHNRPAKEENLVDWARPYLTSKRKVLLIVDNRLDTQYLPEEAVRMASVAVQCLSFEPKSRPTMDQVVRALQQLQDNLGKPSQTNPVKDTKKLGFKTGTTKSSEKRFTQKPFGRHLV
In words: split reporter; BiFC: RLCKs fused with YFPc co-infiltrated into Nicotiana benthamiana leaves with AtBIK1 fused to YFPn; YFP fluorescence by confocal microscopy 48 h after infiltration.

B1: At3g07070 fused with the C-terminal fragment of YFP (protein, UniProt Q9SFT7 1-414)
chain: MNCFSCFYFHEKKKVPRDSDNSYRRNGEVTGRDNNKTHPENPKTVNEQNKNNDEDKEVTNNIAAQTFSFRELATATKNFRQECLIGEGGFGRVYKGKLEKTGMIVAVKQLDRNGLQGNKEFIVEVLMLSLLHHKHLVNLIGYCADGDQRLLVYEYMSRGSLEDHLLDLTPDQIPLDWDTRIRIALGAAMGLEYLHDKANPPVIYRDLKAANILLDGEFNAKLSDFGLAKLGPVGDKQHVSSRVMGTYGYCAPEYQRTGQLTTKSDVYSFGVVLLELITGRRVIDTTRPKDEQNLVTWAQPVFKEPSRFPELADPSLEGVFPEKALNQAVAVAAMCLQEEATVRPLMSDVVTALGFLGTAPDGSISVPHYDDPPQPSDETSVEDSVAAEERERAVAEAMEWGVASRAHSRNPSAS
For the molecule B1, the binding result is reported as “binds”.
